Most values lie at the floor of the assay. Slopes are relative: functional sequences can read slightly below zero.
tested on: Saccharomyces cerevisiae PS128 hsf1 delta, HSF1(1-493) fusion; assay: growth estimate (transactivation domain function in HSF1 fusion, heat-shock survival) (a.u. (slope of normalised read count over time)); higher = stronger growth at 37°C, i.e. more transactivation activity; settings: library: random library
Method: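 Random 60-nt DNA library encoding peptides of up to 20 aa, fused to the C-terminus of yeast HSF1 residues 1-493 (C-terminal TAD deleted) and expressed from the native HSF1 promoter on a CEN plasmid in hsf1-deleted S. cerevisiae PS128. Cells were selected at 37°C on -trp 5-FOA plates for 0, 2, 4, 6 and 8 days and amplicons were sequenced. Growth estimate is the slope of a robust linear fit of total-sum-normalised read counts (normalised to the first time point) over time, using at least 2 replicates. Sequences are classed functional (TAD activity) above a threshold of -0.13, set from stop-codon control sequences.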

Substance | growth estimate
CEQGRPPGTSMSSEQWKCRP | < -0.25
CERYVRRHSSIGPLTRLGGP | < -0.25
CES | < -0.25
CESLAGAWPCQNLVQSSAPS | < -0.25
CETGTMRTL | < -0.25
CEVTYFGSYLPHGTKRFVRD | < -0.25
CFATCLVWRVE | < -0.25
CFCDEFQVHATCVRGQGNQG | < -0.25
CFGAGRTN | < -0.25
CFGSRAAK | < -0.25
CFISTLPWCGFYQGEPPGTG | -0.237
CFKASRYSDSDI | < -0.25
CFKPSILVG | < -0.25
CFLPLMTGRFELSLLLDALE | < -0.25
CFNSRRSWVEKHYIGAGATR | < -0.25
CFPHQLSLGGCLGYGYLGSR | < -0.25
CFRNILLG | < -0.25
CFRVDFTVG | -0.228
CFVQQGGDCLVHLLLNVILR | < -0.25
CFYVIDTSSDSMCQVDGNES | < -0.25
CGARIRMYRSGPKEMRTGVI | < -0.25
CGDLQRLAYSQGMTGWWEAQ | < -0.25
CGFTQP | < -0.25
CGG | < -0.25

Substance | growth estimate
CGGRGARQ | < -0.25
CGGTSW | < -0.25
CGHRDMGRCTAGAVLNVEQH | < -0.25
CGIWARWGPACTTLRQQQTH | < -0.25
CGLGGDGSTDVIPRHDR | < -0.25
CGLGSVAPLPAGSSHR | < -0.25
CGLPKALV | < -0.25
CGLR | < -0.25
CGNADHWGLRVTPGQAHERT | < -0.25
CGNRLNPGFYGSASHARHIE | < -0.25
CGPIIGEAYWMKRGETSWTQ | -0.245
CGPLSKFVDADLTHLVRSSE | < -0.25
CGPYKCRSGTGAPRFGQ | < -0.25
CGRDLHWPTNNSAERRHHTL | -0.246
CGRKYAGLALSNYIPLIPDG | 0.0112
CGRVIAGTPVRPR | < -0.25
CGSCSANIPPYHRTGMGAHA | < -0.25
CGSIYSDGKAPSDEDLCTAG | < -0.25
CGSLVISNGLSVLLRCCAIL | < -0.25
CGSRHGRVPTLVRVPGQAQL | < -0.25
CGSSSPIEANLRYMSSRYLL | < -0.25
CGST | -0.246
CGT | < -0.25
CGTCGYSP | < -0.25

Substance | growth estimate
CGTLGNTN | < -0.25
CGTSTQFFVSKNLLVRVMRR | < -0.25
CGVRYRQ | < -0.25
CGYPTYKSCRGMGISPRPYQ | < -0.25
CHDGRPTFGLTTRRVSKKSR | < -0.25
CHFHRQG | < -0.25
CHFLLYNLHL | < -0.25
CHGGVRVRGIFKSNGGANVM | < -0.25
CHGV | < -0.25
CHHIRRRY | < -0.25
CHPRRMWIFSKV | < -0.25
CHTSNTRDPGCENGVPLRTT | < -0.25
CHV | < -0.25
CHVDCQLDSGSRNRKIS | < -0.25
CIAGGDNWLRRWQSARSVPI | < -0.25
CIAPYRWVALENPRTRLF | < -0.25
CIDQERRRHEICMNSYTG | < -0.25
CIGVHGIYCLINPGPGVTRM | < -0.25
CILKKQQRPK | < -0.25
CIQIEPSCS | < -0.25
CIRA | < -0.25
CIRPNFSGAP | < -0.25
CIRSSVGEIGTTDPLSTREP | < -0.25
CIVRDVRDLCTITSWAVLPG | < -0.25

Substance | growth estimate
CIVRWSSACSNNGRPGQTGR | < -0.25
CKARLRLLR | < -0.25
CKGSGQPAACSTQGATGVHF | < -0.25
CKIDL | < -0.25
CKIGPRGWHIRLVRISSSFV | < -0.25
CKL | < -0.25
CKLGNGYFPTT | < -0.25
CKLRIVFRRTDRPTGVTYHG | < -0.25
CKRTGVLGAGPGYRGHSLTQ | < -0.25
CKSVCLRLYVM | < -0.25
CKVQASFQISARPGLRHLTV | < -0.25
CKYLSVATGNRSLGQGNCMS | < -0.25
CLASRSRRYVCQAHLRSLGG | < -0.25
CLCA | < -0.25
CLCRIE | < -0.25
CLCTSLCGHELFRSGTCQER | < -0.25
CLDCLGFHMEETGPGTPSQS | < -0.25
CLGDSKEPIGRFLQRRSYDV | < -0.25
CLGGTVIPDHDV | -0.246
CLGQARQDYGTVRMCRGQRS | < -0.25
CLGRAWQSQSREMERF | < -0.25
CLGSCFGDLGTFRLWGQLSK | < -0.25
CLHEDMPPR | < -0.25
CLK | -0.245

Substance | growth estimate
CLLVGFLSSSTDFGLLESGR | < -0.25
CLNTYSFP | < -0.25
CLPIIRRMSQLERVYPVSMA | < -0.25
CLPVQGACEPFLDVCTYPWS | < -0.25
CLQCFSRS | < -0.25
CLRGRAASQSCQ | < -0.25
CLRGSCDVAEEGEGRSIGIC | < -0.25
CLRSRPIAFASRLVLKFRLR | < -0.25
CLSGTL | < -0.25
CLSIEPGGKYTYTGLGPVRG | < -0.25
CLSLVVARMRAGPLV | -0.243
CLSQPPGWGRGYGDNDSGAV | < -0.25
CLSRRKALLRLKHCQSPHCV | < -0.25
CLTASTVVDQPSVETVPWST | < -0.25
CLTLCARKYRQMFSDALRIR | < -0.25
CLVRLKNRHGR | < -0.25
CLVTTGLPLQVLGWDS | < -0.25
CLWCPLFN | < -0.25
CLWRNRNMGRPP | < -0.25
CLYVYRLHHDFHRRKLPNDG | < -0.25
CMGSGLPCSGRFMIPSHKHG | < -0.25
CMHFQSSTHRRGTGLLPLSP | < -0.25
CMIAFDCFAVSPVVIPESSI | < -0.25
CMTLRNS | < -0.25

Substance | growth estimate
CMTSVKFPPSFECAVEVDRL | < -0.25
CMVQGAGKLVLLVYTLSKCC | < -0.25
CNESDVGISPIKRRDDDTQF | < -0.25
CNGTAWDI | < -0.25
CNLTVESFS | < -0.25
CNLWAMFMCTEFNPCDARPV | < -0.25
CNPNTGGPVPSECPWLYWPT | < -0.25
CNPRLL | < -0.25
CNQPSNPRVVTGRGTRRLKD | < -0.25
CNRGDLAFRPPTRH | -0.243
CNWVAIPVRRGSQDQ | < -0.25
CPCAVRHYTATHLQFLNAAV | < -0.25
CPERKC | < -0.25
CPESAKRALMTGGRTGAMGV | < -0.25
CPIPFMVGR | < -0.25
CPKDLLVSERMPTENYAPAG | < -0.25
CPKPGETRS | < -0.25
CPLRAVKSSGVS | < -0.25
CPPAP | < -0.25
CPRLCPQRHHLAATWPVCVP | < -0.25
CPRLELWAARGLEPPVPLRL | < -0.25
CPRPGIYSRTVSRNQGRVRV | < -0.25
CPRTGISTGESLAIAFL | < -0.25
CPSLPSSSLARDRSSHSRSR | < -0.25

Substance | growth estimate
CPWILSAFTIPCEVFPKSDV | < -0.25
CQAHD | < -0.25
CQDTPHRGSGGGAGSVGNQF | < -0.25
CQE | < -0.25
CQFRPVVKNVECGNQPNCSP | < -0.25
CQGSIIVSYVYVFGLARGP | < -0.25
CQIKYNTLHAM | < -0.25
CQLDSRVYAAD | < -0.25
CQNHYHSSGCLSINYLQLRA | < -0.25
CQPLASTSFKMKSEK | < -0.25
CQRLKYLPRIEHGESLGDPT | < -0.25
CQRYLDFMSKMRVHSSTSSS | -0.25
CQSDLSLPSMFYSGRFYRQR | < -0.25
CQSGHSRPDMWGWPRKSRVG | < -0.25
CQSGSQFGEASLRHALGCGW | < -0.25
CQT | < -0.25
CQTRGTGKVQEC | < -0.25
CQVACVGSSYEGKYL | < -0.25
CQVPRWCKCSCRSVRQHCGR | < -0.25
CRA | < -0.25
CRADGRNTGP | < -0.25
CRAPFIIAYFGHTLPRRMNV | < -0.25
CRARVPCFRAILSATKNSPG | < -0.25
CRDGMHPSVVVMALRKLVHL | < -0.25

Substance | growth estimate
CREFR | < -0.25
CREFYAVRRLCD | < -0.25
CREQVYSYDGVNFRGAWI | -0.212
CRESNKCPPGGINKRTAEPR | < -0.25
CREVRDLRSFWVLTRLAIRQ | < -0.25
CRFDDDDV | < -0.25
CRGPGLPLHRQTTPTRGSSE | < -0.25
CRGRPKMRRCLELKCAETGA | < -0.25
CRGYIYPGDIGLAMSIGAAN | < -0.25
CRLFPSLKCSGRSVTARKVR | < -0.25
CRLRVV | < -0.25
CRLTSPQRGWYKATRTHP | < -0.25
CRLV | < -0.25
CRLVWSSRDVCTER | < -0.25
CRMGVIS | < -0.25
CRNTALSSAKTFHPGESLGL | < -0.25
CRPCMDKEVDCLSS | < -0.25
CRPTAQSRKSSFWLADHICN | < -0.25
CRPVGCIMKRGLRKQATPGQ | < -0.25
CRPYRFDIGIRMLSMLLSEG | < -0.25

Exported field by field: entries from further up.
CREFR
  growth estimate: < -0.25
CREVRDLRSFWVLTRLAIRQ
  growth estimate: < -0.25
CRGPGLPLHRQTTPTRGSSE
  growth estimate: < -0.25
CRPCMDKEVDCLSS
  growth estimate: < -0.25

Reference: the supplement of paper PMC5949888
